The other results are listed elsewhere or left out. Many values rest on one well or one pass, so single values are uncertain.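 The apoptosis fraction was the count of cleaved-PARP antibody-stained nuclei relative to all DNA-stained nuclei, imaged in 1,536-well plates. Screening doses were set so most cells survived, and baseline and induced cleaved-PARP levels vary greatly across cell lines.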
What follows are compounds tested on COLO792 (assay: cleaved PARP positive nuclei fraction relative to DMSO control; melanoma cells; higher = more apoptosis). Details: library dose: low library concentration; 72 h.
For `CC1(C)CCC(c2ccc(Cl)cc2)=C(CN2CCN(c3ccc(C(=O)NS(=O)(=O)c4ccc(N[C@H](CCN5CCOCC5)CSc5ccccc5)c(S(=O)(=O)C(F)(F)F)c4)cc3)CC2)C1` + Cc1cn(-c2cc(NC(=O)c3ccc(C)c(Nc4nccc(-c5cccnc5)n4)c3)cc(C(F)(F)F)c2)cn1 [nilotinib] (first compound 0.4 µM, partner dose 0.2 µM), the “cleaved PARP positive nuclei fraction” value was 315%. `C[C@@H](N)c1ccc(C(=O)Nc2ccnc3[nH]ccc23)cc1` + CCCCCCCCc1ccc(CCC(N)(CO)CO)cc1 [fingolimod] (first compound 0.4 µM, partner dose 2 µM) was tested, and the “cleaved PARP positive nuclei fraction” value was 118%. `Cn1cnc2c(F)c(Nc3ccc(Br)cc3Cl)c(C(=O)NOCCO)cc21` [selumetinib] + CCCCCCCCc1ccc(CCC(N)(CO)CO)cc1 [fingolimod] (first compound 0.015 µM, partner dose 2 µM) was tested, and the “cleaved PARP positive nuclei fraction” value was 140%. With `C[C@]1(O)C[C@@H](c2nc(-c3ccc4ccc(-c5ccccc5)nc4c3)c3c(N)nccn32)C1` + Nc1ccn([C@@H]2O[C@H](CO)[C@@H](O)C2(F)F)c(=O)n1 [gemcitabine] (first compound 0.4 µM, partner dose 0.0004 µM) the “cleaved PARP positive nuclei fraction” value was 101%. For `CCCCCCCCc1ccc(CCC(N)(CO)CO)cc1` [fingolimod] + Nc1nc(F)nc2c1ncn2[C@@H]1O[C@H](CO)[C@@H](O)[C@@H]1O [fludarabine] (first compound 2 µM, partner dose 0.2 µM), the “cleaved PARP positive nuclei fraction” value was 79.7%. `CCCCCCCCc1ccc(CCC(N)(CO)CO)cc1` [fingolimod] + C#Cc1cccc(Nc2ncnc3cc(OCCOC)c(OCCOC)cc23)c1 [erlotinib] (first compound 2 µM, partner dose 0.8 µM) was tested, and the “cleaved PARP positive nuclei fraction” value was 114%. With `C[C@]1(O)C[C@@H](c2nc(-c3ccc4ccc(-c5ccccc5)nc4c3)c3c(N)nccn32)C1` + O=C(O)[C@@H]1[O][Sb](=[O])([O][Sb]2(=[O])[O][C@H]([C@H](O)CO)[C@H](O)[C@H](C(=O)O)[O]2)[O][C@H]([C@H](O)CO)[C@@H]1O [stibogluconate] (first compound 0.4 µM, partner dose 2 µM) the “cleaved PARP positive nuclei fraction” value was 63%. For `CC1(C)CCC(c2ccc(Cl)cc2)=C(CN2CCN(c3ccc(C(=O)NS(=O)(=O)c4ccc(N[C@H](CCN5CCOCC5)CSc5ccccc5)c(S(=O)(=O)C(F)(F)F)c4)cc3)CC2)C1` + COc1ccc(Cl)c(Nc2nc3ccccc3nc2NS(=O)(=O)c2cccc(NC(=O)C(C)(C)N)c2)c1 [XL147] (first compound 0.4 µM, partner dose 0.8 µM), the “cleaved PARP positive nuclei fraction” value was 545%. `CC(=O)O[C@@]12CO[C@@H]1C[C@H](O)[C@@]1(C)C(=O)[C@H](O)C3=C(C)[C@@H](OC(=O)[C@H](O)[C@@H](NC(=O)OC(C)(C)C)c4ccccc4)C[C@@](O)([C@@H](OC(=O)c4ccccc4)[C@H]21)C3(C)C` [Docetaxel] + Cc1nc(Nc2ncc(C(=O)Nc3c(C)cccc3Cl)s2)cc(N2CCN(CCO)CC2)n1 [dasatanib] (first compound 0.0001 µM, partner dose 0.004 µM) was tested, and the “cleaved PARP positive nuclei fraction” value was 988%. For `CN(c1ncccc1CNc1nc(Nc2ccc3c(c2)CC(=O)N3)ncc1C(F)(F)F)S(C)(=O)=O` + C=CCNC1=C2C[C@@H](C)C[C@H](OC)[C@H](O)[C@@H](C)/C=C(\C)[C@H](OC(N)=O)[C@@H](OC)/C=C\C=C(/C)C(=O)NC(=CC1=O)C2=O [Tanespimycin] (first compound 0.08 µM, partner dose 0.002 µM), the “cleaved PARP positive nuclei fraction” value was 76.6%. For `C[C@]1(O)C[C@@H](c2nc(-c3ccc4ccc(-c5ccccc5)nc4c3)c3c(N)nccn32)C1` + CCN(CC)CCNC(=O)c1c(C)[nH]c(/C=C2\C(=O)Nc3ccc(F)cc32)c1C [sunitinib] (first compound 0.4 µM, partner dose 0.4 µM), the “cleaved PARP positive nuclei fraction” value was 103%. With `C[C@]1(O)C[C@@H](c2nc(-c3ccc4ccc(-c5ccccc5)nc4c3)c3c(N)nccn32)C1` + C[C@]1(c2nc3c(C(N)=O)cccc3[nH]2)CCCN1 [Veliparib] (first compound 0.4 µM, partner dose 1.4 µM) the “cleaved PARP positive nuclei fraction” value was 87.8%. `CCN(CC)CCNC(=O)c1c(C)[nH]c(/C=C2\C(=O)Nc3ccc(F)cc32)c1C` [sunitinib] + C[C@]1(c2nc3c(C(N)=O)cccc3[nH]2)CCCN1 [Veliparib] (first compound 0.4 µM, partner dose 1.4 µM) was tested, and the “cleaved PARP positive nuclei fraction” value was 152%. With `CC1(C)CCC(c2ccc(Cl)cc2)=C(CN2CCN(c3ccc(C(=O)NS(=O)(=O)c4ccc(N[C@H](CCN5CCOCC5)CSc5ccccc5)c(S(=O)(=O)C(F)(F)F)c4)cc3)CC2)C1` + CN1CCN(c2ccc3nc(-c4c(N)c5c(F)cccc5[nH]c4=O)[nH]c3c2)CC1 [Dovitinib] (first compound 0.4 µM, partner dose 0.1 µM) the “cleaved PARP positive nuclei fraction” value was 435%. With `Cn1sc(=O)n(Cc2ccccc2)c1=O` + Cn1c(Nc2ccc(C(F)(F)F)cc2)nc2cc(Oc3ccnc(-c4ncc(C(F)(F)F)[nH]4)c3)ccc21 [CHIR265] (first compound 0.4 µM, partner dose 0.08 µM) the “cleaved PARP positive nuclei fraction” value was 335%. For `Cn1cnc2c(F)c(Nc3ccc(Br)cc3Cl)c(C(=O)NOCCO)cc21` [selumetinib] + C#Cc1cccc(Nc2ncnc3cc(OCCOC)c(OCCOC)cc23)c1 [erlotinib] (first compound 0.015 µM, partner dose 0.8 µM), the “cleaved PARP positive nuclei fraction” value was 197%. With `NC(=O)c1ccc(N(C(N)=O)c2c(F)cccc2F)nc1-c1ccc(F)cc1F` + C[C@@H](Oc1cc(-c2cnn(C3CCNCC3)c2)cnc1N)c1c(Cl)ccc(F)c1Cl [Crizotinib] (first compound 0.4 µM, partner dose 0.2 µM) the “cleaved PARP positive nuclei fraction” value was 68.6%. `CCN(CC)CCNC(=O)c1c(C)[nH]c(/C=C2\C(=O)Nc3ccc(F)cc32)c1C` [sunitinib] + Nc1ccn([C@@H]2O[C@H](CO)[C@@H](O)C2(F)F)c(=O)n1 [gemcitabine] (first compound 0.4 µM, partner dose 0.0004 µM) was tested, and the “cleaved PARP positive nuclei fraction” value was 50.4%. For `CC1(C)CCC(c2ccc(Cl)cc2)=C(CN2CCN(c3ccc(C(=O)NS(=O)(=O)c4ccc(N[C@H](CCN5CCOCC5)CSc5ccccc5)c(S(=O)(=O)C(F)(F)F)c4)cc3)CC2)C1` + CS(=O)(=O)CCNCc1ccc(-c2ccc3ncnc(Nc4ccc(OCc5cccc(F)c5)c(Cl)c4)c3c2)o1 [lapatinib] (first compound 0.4 µM, partner dose 0.8 µM), the “cleaved PARP positive nuclei fraction” value was 416%. For `CC1(C)CCC(c2ccc(Cl)cc2)=C(CN2CCN(c3ccc(C(=O)NS(=O)(=O)c4ccc(N[C@H](CCN5CCOCC5)CSc5ccccc5)c(S(=O)(=O)C(F)(F)F)c4)cc3)CC2)C1` + CCCS(=O)(=O)Nc1ccc(F)c(C(=O)c2c[nH]c3ncc(Cl)cc23)c1F [PLX4720] (first compound 0.4 µM, partner dose 0.08 µM), the “cleaved PARP positive nuclei fraction” value was 191%. In the case of `CN(c1ncccc1CNc1nc(Nc2ccc3c(c2)CC(=O)N3)ncc1C(F)(F)F)S(C)(=O)=O` + NC1(c2ccc(-c3nc4ccn5c(=O)[nH]nc5c4cc3-c3ccccc3)cc2)CCC1 [MK2206] (first compound 0.08 µM, partner dose 0.4 µM), the “cleaved PARP positive nuclei fraction” value is reported as 110%. For `C[C@@H](N)c1ccc(C(=O)Nc2ccnc3[nH]ccc23)cc1` + Nc1ccn([C@@H]2O[C@H](CO)[C@@H](O)C2(F)F)c(=O)n1 [gemcitabine] (first compound 0.4 µM, partner dose 0.0004 µM), the “cleaved PARP positive nuclei fraction” value was 277%. `CS(=O)(=O)c1ccc(C(=O)Nc2ccc(Cl)c(-c3ccccn3)c2)c(Cl)c1` [vismodegib] + CCCCCCCCc1ccc(CCC(N)(CO)CO)cc1 [fingolimod] (first compound 1 µM, partner dose 2 µM) was tested, and the “cleaved PARP positive nuclei fraction” value was 81.3%. For `C[C@@H](N)c1ccc(C(=O)Nc2ccnc3[nH]ccc23)cc1` + Nc1ncn([C@H]2C[C@H](O)[C@@H](CO)O2)c(=O)n1 [decitabine] (first compound 0.4 µM, partner dose 0.1 µM), the “cleaved PARP positive nuclei fraction” value was 80.1%. `C[C@]1(O)C[C@@H](c2nc(-c3ccc4ccc(-c5ccccc5)nc4c3)c3c(N)nccn32)C1` + CS(=O)(=O)c1ccc(C(=O)Nc2ccc(Cl)c(-c3ccccn3)c2)c(Cl)c1 [vismodegib] (first compound 0.4 µM, partner dose 1 µM) was tested, and the “cleaved PARP positive nuclei fraction” value was 165%. With `C[C@@H](N)c1ccc(C(=O)Nc2ccnc3[nH]ccc23)cc1` + CCCS(=O)(=O)Nc1ccc(F)c(C(=O)c2c[nH]c3ncc(Cl)cc23)c1F [PLX4720] (first compound 0.4 µM, partner dose 0.08 µM) the “cleaved PARP positive nuclei fraction” value was 85.6%. With `CN(c1ncccc1CNc1nc(Nc2ccc3c(c2)CC(=O)N3)ncc1C(F)(F)F)S(C)(=O)=O` + O=C(O)c1ccc2c(c1)nc(Nc1cccc(Cl)c1)c1ccncc12 [CX4945] (first compound 0.08 µM, partner dose 0.4 µM) the “cleaved PARP positive nuclei fraction” value was 126%. For `NC(=O)c1ccc(N(C(N)=O)c2c(F)cccc2F)nc1-c1ccc(F)cc1F` + C=CCNC1=C2C[C@@H](C)C[C@H](OC)[C@H](O)[C@@H](C)/C=C(\C)[C@H](OC(N)=O)[C@@H](OC)/C=C\C=C(/C)C(=O)NC(=CC1=O)C2=O [Tanespimycin] (first compound 0.4 µM, partner dose 0.002 µM), the “cleaved PARP positive nuclei fraction” value was 59.6%. `Cn1cnc2c(F)c(Nc3ccc(Br)cc3Cl)c(C(=O)NOCCO)cc21` [selumetinib] + Nc1ccn([C@@H]2O[C@H](CO)[C@@H](O)C2(F)F)c(=O)n1 [gemcitabine] (first compound 0.015 µM, partner dose 0.0004 µM) was tested, and the “cleaved PARP positive nuclei fraction” value was 159%.

From the supplement of paper PMC4604168 (melanoma cell lines)
